The test addresses T1, SFB-tagged ZMYM2 (human) (UniProt Q9UBW7).
T1 sequence: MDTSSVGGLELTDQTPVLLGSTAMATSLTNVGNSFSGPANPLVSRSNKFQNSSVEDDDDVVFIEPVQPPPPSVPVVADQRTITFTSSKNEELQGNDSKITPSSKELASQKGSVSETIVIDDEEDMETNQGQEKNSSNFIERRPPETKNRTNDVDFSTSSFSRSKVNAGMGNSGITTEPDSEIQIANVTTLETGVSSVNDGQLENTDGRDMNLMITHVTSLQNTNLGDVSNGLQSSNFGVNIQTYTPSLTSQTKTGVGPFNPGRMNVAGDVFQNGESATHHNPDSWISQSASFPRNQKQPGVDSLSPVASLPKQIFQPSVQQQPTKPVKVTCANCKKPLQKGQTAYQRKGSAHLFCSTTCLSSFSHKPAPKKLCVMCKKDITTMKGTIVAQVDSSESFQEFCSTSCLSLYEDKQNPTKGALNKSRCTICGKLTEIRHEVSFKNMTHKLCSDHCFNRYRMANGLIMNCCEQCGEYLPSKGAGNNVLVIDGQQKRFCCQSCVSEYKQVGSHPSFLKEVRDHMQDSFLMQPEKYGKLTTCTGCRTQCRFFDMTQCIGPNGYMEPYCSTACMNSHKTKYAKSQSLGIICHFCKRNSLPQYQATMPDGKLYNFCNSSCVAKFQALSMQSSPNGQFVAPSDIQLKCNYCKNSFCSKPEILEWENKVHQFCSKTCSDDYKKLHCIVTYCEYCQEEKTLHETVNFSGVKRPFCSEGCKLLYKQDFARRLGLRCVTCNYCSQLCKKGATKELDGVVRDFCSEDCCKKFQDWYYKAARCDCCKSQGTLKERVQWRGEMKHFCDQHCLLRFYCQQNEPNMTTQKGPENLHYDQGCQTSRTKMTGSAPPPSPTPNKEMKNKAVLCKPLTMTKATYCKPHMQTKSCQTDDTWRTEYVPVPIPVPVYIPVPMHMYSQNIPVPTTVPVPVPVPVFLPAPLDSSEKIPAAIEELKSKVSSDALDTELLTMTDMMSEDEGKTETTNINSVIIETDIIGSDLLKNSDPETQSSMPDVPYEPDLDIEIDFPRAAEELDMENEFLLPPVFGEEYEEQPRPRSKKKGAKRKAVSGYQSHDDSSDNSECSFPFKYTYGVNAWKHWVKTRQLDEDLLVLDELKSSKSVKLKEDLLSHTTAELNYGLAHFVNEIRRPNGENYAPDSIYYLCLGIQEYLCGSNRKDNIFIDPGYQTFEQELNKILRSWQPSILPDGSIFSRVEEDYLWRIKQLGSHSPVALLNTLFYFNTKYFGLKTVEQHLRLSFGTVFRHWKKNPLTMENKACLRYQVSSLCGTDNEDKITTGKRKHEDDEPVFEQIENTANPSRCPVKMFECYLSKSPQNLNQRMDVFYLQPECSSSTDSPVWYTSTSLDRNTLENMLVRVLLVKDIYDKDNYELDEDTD
The experiment in a line: affinity purification with mass spectrometry; tandem affinity purification of SFB-ZMYM2 from transfected HEK293T cells; chromatin fraction (NETN buffer with Turbo-Nuclease, 1 mM MgCl2); streptavidin sepharose, biotin elution, S-protein beads; two independent experiments.

By UniProt entry, the sequences of proteins in these tests, tags left out.
UniProt P78527: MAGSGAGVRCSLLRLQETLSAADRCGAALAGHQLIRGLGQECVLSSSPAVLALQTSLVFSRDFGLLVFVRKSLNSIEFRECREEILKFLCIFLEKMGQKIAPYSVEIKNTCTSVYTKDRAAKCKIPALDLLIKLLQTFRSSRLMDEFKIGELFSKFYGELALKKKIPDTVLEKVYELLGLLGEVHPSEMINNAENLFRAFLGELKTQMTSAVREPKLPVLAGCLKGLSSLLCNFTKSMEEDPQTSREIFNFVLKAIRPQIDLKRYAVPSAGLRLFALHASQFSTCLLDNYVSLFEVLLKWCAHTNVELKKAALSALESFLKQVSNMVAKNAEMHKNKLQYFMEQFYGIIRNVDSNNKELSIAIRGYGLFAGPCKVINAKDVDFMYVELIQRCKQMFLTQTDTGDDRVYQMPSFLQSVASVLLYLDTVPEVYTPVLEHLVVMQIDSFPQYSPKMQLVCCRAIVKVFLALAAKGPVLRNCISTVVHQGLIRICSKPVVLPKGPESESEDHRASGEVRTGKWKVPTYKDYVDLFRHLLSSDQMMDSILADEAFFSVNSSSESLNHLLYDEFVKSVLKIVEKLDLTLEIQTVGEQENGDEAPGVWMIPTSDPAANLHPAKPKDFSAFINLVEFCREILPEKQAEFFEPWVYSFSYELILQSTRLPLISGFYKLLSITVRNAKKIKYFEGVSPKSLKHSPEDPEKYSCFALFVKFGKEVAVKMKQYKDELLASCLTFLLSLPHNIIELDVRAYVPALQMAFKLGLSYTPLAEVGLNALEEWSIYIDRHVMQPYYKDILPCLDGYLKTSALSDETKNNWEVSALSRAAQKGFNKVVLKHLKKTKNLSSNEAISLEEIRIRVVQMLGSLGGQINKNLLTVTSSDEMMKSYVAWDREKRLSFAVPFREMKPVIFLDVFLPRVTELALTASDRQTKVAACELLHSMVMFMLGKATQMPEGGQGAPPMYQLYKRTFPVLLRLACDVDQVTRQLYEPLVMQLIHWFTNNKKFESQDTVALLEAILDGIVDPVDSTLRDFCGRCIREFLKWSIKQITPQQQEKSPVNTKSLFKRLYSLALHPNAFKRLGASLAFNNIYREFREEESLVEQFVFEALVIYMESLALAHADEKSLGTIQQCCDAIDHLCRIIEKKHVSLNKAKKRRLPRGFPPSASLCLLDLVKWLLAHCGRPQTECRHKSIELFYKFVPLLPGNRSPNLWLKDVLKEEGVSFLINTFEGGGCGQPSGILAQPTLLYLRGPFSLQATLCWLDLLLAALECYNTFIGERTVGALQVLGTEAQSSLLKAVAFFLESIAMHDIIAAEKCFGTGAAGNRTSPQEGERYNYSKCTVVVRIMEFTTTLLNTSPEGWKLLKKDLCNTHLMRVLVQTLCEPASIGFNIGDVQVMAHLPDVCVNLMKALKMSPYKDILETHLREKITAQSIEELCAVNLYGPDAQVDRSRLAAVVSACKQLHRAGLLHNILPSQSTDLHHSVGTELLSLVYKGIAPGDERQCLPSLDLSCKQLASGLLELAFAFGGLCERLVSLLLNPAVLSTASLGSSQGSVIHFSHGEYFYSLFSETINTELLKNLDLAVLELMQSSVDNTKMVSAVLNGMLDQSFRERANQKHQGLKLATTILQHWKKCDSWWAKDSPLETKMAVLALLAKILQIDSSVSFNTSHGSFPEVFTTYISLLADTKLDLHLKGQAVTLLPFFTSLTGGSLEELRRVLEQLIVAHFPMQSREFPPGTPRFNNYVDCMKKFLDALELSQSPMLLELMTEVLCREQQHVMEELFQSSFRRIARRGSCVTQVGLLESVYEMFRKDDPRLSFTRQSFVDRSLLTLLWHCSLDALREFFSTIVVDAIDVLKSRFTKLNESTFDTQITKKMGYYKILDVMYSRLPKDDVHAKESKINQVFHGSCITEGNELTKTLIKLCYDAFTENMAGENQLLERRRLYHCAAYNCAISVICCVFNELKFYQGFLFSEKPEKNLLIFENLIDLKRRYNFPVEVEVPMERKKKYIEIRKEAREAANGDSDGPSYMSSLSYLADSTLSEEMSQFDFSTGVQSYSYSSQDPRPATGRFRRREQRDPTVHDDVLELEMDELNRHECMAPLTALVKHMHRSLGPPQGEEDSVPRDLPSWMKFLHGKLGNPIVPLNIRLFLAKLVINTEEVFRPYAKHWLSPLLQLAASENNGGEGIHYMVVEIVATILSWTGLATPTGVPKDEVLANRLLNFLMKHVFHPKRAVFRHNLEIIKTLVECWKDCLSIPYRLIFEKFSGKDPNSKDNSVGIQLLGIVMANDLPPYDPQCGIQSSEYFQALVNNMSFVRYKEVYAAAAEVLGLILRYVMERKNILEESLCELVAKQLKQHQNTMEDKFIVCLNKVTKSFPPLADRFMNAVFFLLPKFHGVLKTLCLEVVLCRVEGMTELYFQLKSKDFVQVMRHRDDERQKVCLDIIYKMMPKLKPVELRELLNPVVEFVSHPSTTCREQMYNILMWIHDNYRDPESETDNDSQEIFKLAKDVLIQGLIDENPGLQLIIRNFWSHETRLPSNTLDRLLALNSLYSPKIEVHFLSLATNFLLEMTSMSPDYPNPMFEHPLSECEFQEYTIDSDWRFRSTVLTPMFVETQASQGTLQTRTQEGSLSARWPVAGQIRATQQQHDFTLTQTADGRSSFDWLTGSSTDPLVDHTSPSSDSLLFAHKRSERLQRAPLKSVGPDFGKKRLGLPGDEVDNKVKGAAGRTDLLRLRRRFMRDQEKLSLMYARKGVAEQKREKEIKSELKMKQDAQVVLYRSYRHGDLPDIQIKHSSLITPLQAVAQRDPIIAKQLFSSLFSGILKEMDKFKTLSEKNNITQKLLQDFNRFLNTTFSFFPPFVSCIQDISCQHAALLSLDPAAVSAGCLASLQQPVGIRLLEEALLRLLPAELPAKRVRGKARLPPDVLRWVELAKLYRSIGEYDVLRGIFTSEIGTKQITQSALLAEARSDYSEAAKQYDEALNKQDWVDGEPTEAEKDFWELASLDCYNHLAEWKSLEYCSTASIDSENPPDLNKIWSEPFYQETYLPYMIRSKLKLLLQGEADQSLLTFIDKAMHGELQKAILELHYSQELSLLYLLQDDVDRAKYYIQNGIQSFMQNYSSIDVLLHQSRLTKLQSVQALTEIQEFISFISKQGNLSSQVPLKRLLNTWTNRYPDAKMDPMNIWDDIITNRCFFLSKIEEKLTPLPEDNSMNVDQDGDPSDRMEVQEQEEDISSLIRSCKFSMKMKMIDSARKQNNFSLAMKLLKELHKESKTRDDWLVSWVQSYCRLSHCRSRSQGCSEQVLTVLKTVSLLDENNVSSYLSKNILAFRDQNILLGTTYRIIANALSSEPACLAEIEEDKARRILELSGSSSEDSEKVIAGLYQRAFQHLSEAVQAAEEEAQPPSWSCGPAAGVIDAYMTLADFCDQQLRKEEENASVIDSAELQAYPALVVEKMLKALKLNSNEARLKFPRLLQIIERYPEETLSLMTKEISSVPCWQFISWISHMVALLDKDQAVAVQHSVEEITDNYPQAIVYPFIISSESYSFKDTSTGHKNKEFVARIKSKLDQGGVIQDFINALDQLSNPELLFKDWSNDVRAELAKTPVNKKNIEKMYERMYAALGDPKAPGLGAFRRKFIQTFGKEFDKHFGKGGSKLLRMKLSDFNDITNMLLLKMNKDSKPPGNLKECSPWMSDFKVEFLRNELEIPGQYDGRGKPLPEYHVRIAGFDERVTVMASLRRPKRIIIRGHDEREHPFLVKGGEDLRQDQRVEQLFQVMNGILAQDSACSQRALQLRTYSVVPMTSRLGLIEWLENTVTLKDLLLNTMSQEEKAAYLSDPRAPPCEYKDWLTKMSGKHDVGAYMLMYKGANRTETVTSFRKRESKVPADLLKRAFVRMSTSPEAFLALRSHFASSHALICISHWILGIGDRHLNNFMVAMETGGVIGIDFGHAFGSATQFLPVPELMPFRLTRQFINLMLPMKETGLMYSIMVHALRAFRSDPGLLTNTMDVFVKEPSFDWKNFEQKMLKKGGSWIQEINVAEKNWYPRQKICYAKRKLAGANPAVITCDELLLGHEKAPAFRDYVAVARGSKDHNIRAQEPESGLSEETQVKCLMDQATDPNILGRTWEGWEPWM

Results are given in words; binding and its absence hold for the method and conditions named. Binding seen in cells or lysates may run through a third protein. Here binding means that the protein was enriched with, or labelled near, the bait; the list need not be complete. Where a sequence is shown, tags or fusion partners need not be part of it.

Regarding “DNA-dependent protein kinase DNA-PK (PRKDC) (from UniProt P78527 1-4128) (enzyme)”, the binding result is given as “binds”.

B1: Endogenous ZMYM3 (protein, UniProt Q14202 1-1370)
chain: MDPSDFPSPFDPLTLPEKPLAGDLPVDMEFGEDLLESQTAPTRGWAPPGPSPSSGALDLLDTPAGLEKDPGVLDGATELLGLGGLLYKAPSPPEVDHGPEGTLAWDAGDQTLEPGPGGQTPEVVPPDPGAGANSCSPEGLLEPLAPDSPITLQSPHIEEEETTSIATARRGSPGQEEELPQGQPQSPNAPPSPSVGETLGDGINSSQTKPGGSSPPAHPSLPGDGLTAKASEKPPERKRSERVRRAEPPKPEVVDSTESIPVSDEDSDAMVDDPNDEDFVPFRPRRSPRMSLRSSVSQRAGRSAVGTKMTCAHCRTPLQKGQTAYQRKGLPQLFCSSSCLTTFSKKPSGKKTCTFCKKEIWNTKDSVVAQTGSGGSFHEFCTSVCLSLYEAQQQRPIPQSGDPADATRCSICQKTGEVLHEVSNGSVVHRLCSDSCFSKFRANKGLKTNCCDQCGAYIYTKTGSPGPELLFHEGQQKRFCNTTCLGAYKKKNTRVYPCVWCKTLCKNFEMLSHVDRNGKTSLFCSLCCTTSYKVKQAGLTGPPRPCSFCRRSLSDPCYYNKVDRTVYQFCSPSCWTKFQRTSPEGGIHLSCHYCHSLFSGKPEVLDWQDQVFQFCCRDCCEDFKRLRGVVSQCEHCRQEKLLHEKLRFSGVEKSFCSEGCVLLYKQDFTKKLGLCCITCTYCSQTCQRGVTEQLDGSTWDFCSEDCKSKYLLWYCKAARCHACKRQGKLLETIHWRGQIRHFCNQQCLLRFYSQQNQPNLDTQSGPESLLNSQSPESKPQTPSQTKVENSNTVRTPEENGNLGKIPVKTRSAPTAPTPPPPPPPATPRKNKAAMCKPLMQNRGVSCKVEMKSKGSQTEEWKPQVIVLPIPVPIFVPVPMHLYCQKVPVPFSMPIPVPVPMFLPTTLESTDKIVETIEELKVKIPSNPLEADILAMAEMIAEAEELDKASSDLCDLVSNQSAEGLLEDCDLFGPARDDVLAMAVKMANVLDEPGQDLEADFPKNPLDINPSVDFLFDCGLVGPEDVSTEQDLPRTMRKGQKRLVLSESCSRDSMSSQPSCTGLNYSYGVNAWKCWVQSKYANGETSKGDELRFGPKPMRIKEDILACSAAELNYGLAQFVREITRPNGERYEPDSIYYLCLGIQQYLLENNRMVNIFTDLYYLTFVQELNKSLSTWQPTLLPNNTVFSRVEEEHLWECKQLGVYSPFVLLNTLMFFNTKFFGLQTAEEHMQLSFTNVVRQSRKCTTPRGTTKVVSIRYYAPVRQRKGRDTGPGKRKREDEAPILEQRENRMNPLRCPVKFYEFYLSKCPESLRTRNDVFYLQPERSCIAESPLWYSVIPMDRSMLESMLNRILAVREIYEELGRPGEEDLD
As to B1, the binding result is listed as “binds”.

Values taken from PMC9023290.
